Measured data: PubChem BioAssay AID1224830 (NIAID, 2016)

- Aim: 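Host factors that control LPS-induced TNF expression in human macrophages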 (primary screen)
- Cells: human THP-1 monocytic leukaemia cells, TNF dual-luciferase reporter clone, PMA-differentiated to macrophage-like cells
- Knock-down reagent: siRNA pool against human genes, 50 nM
- Duration: LPS for 4 h, given about 3 days after siRNA transfection
- Challenge: bacterial LPS (TLR4 ligand), 10 ng/ml
- Read-out: 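Ratio of firefly to renilla light, scaled to the plate median and expressed as a robust z-score per replicate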
- Reading the numbers: TNF reporter robust z-score: higher = stronger TNF reporter response to LPS
- Call rule: 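Each well counts as active if its z-score is over 2.8 or under -1.5; controls are left without a call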
In all, the deposit lists about 18,000 reagents; this is a random part of them. Over the whole deposit, about 2,900 (16%) were called active. 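Calls are made per well; low scores hint the gene aids the LPS response, high scores that it dampens it.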 Repeated entries: four replicate wells of each siRNA pool.

With knock-down of CD1A (GeneID 909) [SID315447751] the results were TNF reporter robust z-score -0.63; inactive.
CD1A (GeneID 909) [SID315447751] scored TNF reporter robust z-score -0.59; inactive.
With knock-down of CD1A (GeneID 909) [SID315447751], the screen gave TNF reporter robust z-score -1.26; inactive.
Depletion of CD1A (GeneID 909) [SID315447751] gave: TNF reporter robust z-score 0.47; inactive.
PPHLN1 (GeneID 51535) [SID315456766] showed TNF reporter robust z-score 2.24; inactive.
PPHLN1 (GeneID 51535) [SID315456766] gave TNF reporter robust z-score 1.89; inactive.
Silencing of PPHLN1 (GeneID 51535) [SID315456766] came out at: TNF reporter robust z-score 2.14; inactive.
Silencing of PPHLN1 (GeneID 51535) [SID315456766] came out at: TNF reporter robust z-score 3.19; active.
DUSP3 (GeneID 1845) [SID315448401] showed TNF reporter robust z-score 0.18; inactive.
DUSP3 (GeneID 1845) [SID315448401] gave TNF reporter robust z-score 1.9; inactive.
DUSP3 (GeneID 1845) [SID315448401] scored TNF reporter robust z-score 0.88; inactive.
After knock-down of DUSP3 (GeneID 1845) [SID315448401], the record shows TNF reporter robust z-score 0.25; inactive.
Knock-down of IFNA13 (GeneID 3447) [SID315449415] resulted in: TNF reporter robust z-score -1.33; inactive.
IFNA13 (GeneID 3447) [SID315449415] showed TNF reporter robust z-score -1.03; inactive.
IFNA13 (GeneID 3447) [SID315449415] gave TNF reporter robust z-score -0.99; inactive.
IFNA13 (GeneID 3447) [SID315449415] scored TNF reporter robust z-score -0.52; inactive.
With knock-down of LDHA (GeneID 3939) [SID315449745], the record shows TNF reporter robust z-score 1.06; inactive.
LDHA (GeneID 3939) [SID315449745] scored TNF reporter robust z-score 1.69; inactive.
LDHA (GeneID 3939) [SID315449745] showed TNF reporter robust z-score 0.01; inactive.
With knock-down of LDHA (GeneID 3939) [SID315449745], the screen gave TNF reporter robust z-score 0.78; inactive.
For NOX3 (GeneID 50508) [SID315456325], the entry reads TNF reporter robust z-score 0.01; inactive.
With knock-down of NOX3 (GeneID 50508) [SID315456325], the screen gave TNF reporter robust z-score 0.93; inactive.
Silencing of NOX3 (GeneID 50508) [SID315456325] came out at: TNF reporter robust z-score 0.05; inactive.
Knock-down of NOX3 (GeneID 50508) [SID315456325] gave: TNF reporter robust z-score 0.84; inactive.
Against PCDHAC2 (GeneID 56134) [SID315458015] the deposit lists TNF reporter robust z-score 0.05; inactive.
For PCDHAC2 (GeneID 56134) [SID315458015], the entry reads TNF reporter robust z-score -1.01; inactive.
Silencing of PCDHAC2 (GeneID 56134) [SID315458015] gave: TNF reporter robust z-score -0.38; inactive.
Silencing of PCDHAC2 (GeneID 56134) [SID315458015] resulted in: TNF reporter robust z-score -0.57; inactive.
C2CD5 (GeneID 9847) [SID315453614] scored TNF reporter robust z-score -0.62; inactive.
Silencing of C2CD5 (GeneID 9847) [SID315453614] gave: TNF reporter robust z-score 0.21; inactive.
With knock-down of C2CD5 (GeneID 9847) [SID315453614] the results were TNF reporter robust z-score -0.95; inactive.
Against C2CD5 (GeneID 9847) [SID315453614], the entry reads TNF reporter robust z-score 0.45; inactive.
Silencing of CCT2 (GeneID 10576) [SID315454205] gave: TNF reporter robust z-score -1.53; active.
Against CCT2 (GeneID 10576) [SID315454205] the deposit lists TNF reporter robust z-score -1.25; inactive.
Against CCT2 (GeneID 10576) [SID315454205] the deposit lists TNF reporter robust z-score -1.18; inactive.
TNR (GeneID 7143) [SID315451935] scored TNF reporter robust z-score -0.11; inactive.
After knock-down of TNR (GeneID 7143) [SID315451935], the record shows TNF reporter robust z-score 0.78; inactive.
Knock-down of TNR (GeneID 7143) [SID315451935] gave: TNF reporter robust z-score -0.06; inactive.
With knock-down of TNR (GeneID 7143) [SID315451935], the record shows TNF reporter robust z-score 0.19; inactive.
AMZ2 (GeneID 51321) [SID315456646] scored TNF reporter robust z-score 0.42; inactive.
AMZ2 (GeneID 51321) [SID315456646] scored TNF reporter robust z-score -0.22; inactive.
AMZ2 (GeneID 51321) [SID315456646] gave TNF reporter robust z-score 0.7; inactive.
PDSS1 (GeneID 23590) [SID315455352] gave TNF reporter robust z-score -0.9; inactive.
After knock-down of PDSS1 (GeneID 23590) [SID315455352], the screen gave TNF reporter robust z-score -1.22; inactive.
PDSS1 (GeneID 23590) [SID315455352] scored TNF reporter robust z-score -0.95; inactive.
Against PDSS1 (GeneID 23590) [SID315455352], the entry reads TNF reporter robust z-score -1.04; inactive.
After knock-down of SPINDOC (GeneID 144097) [SID315462201] the results were TNF reporter robust z-score -1.09; inactive.
With knock-down of SPINDOC (GeneID 144097) [SID315462201] the results were TNF reporter robust z-score -0.99; inactive.
Silencing of SPINDOC (GeneID 144097) [SID315462201] came out at: TNF reporter robust z-score -0.71; inactive.
Against SPINDOC (GeneID 144097) [SID315462201] the deposit lists TNF reporter robust z-score -1.04; inactive.
ATAD3A (GeneID 55210) [SID315457499] gave TNF reporter robust z-score 1.75; inactive.
ATAD3A (GeneID 55210) [SID315457499] scored TNF reporter robust z-score 3.89; active.
Depletion of ATAD3A (GeneID 55210) [SID315457499] resulted in: TNF reporter robust z-score 1.55; inactive.
With knock-down of ATAD3A (GeneID 55210) [SID315457499], the screen gave TNF reporter robust z-score 3.93; active.
Silencing of ABCC4 (GeneID 10257) [SID315453953] gave: TNF reporter robust z-score 0.79; inactive.
Silencing of ABCC4 (GeneID 10257) [SID315453953] resulted in: TNF reporter robust z-score 1; inactive.
Silencing of ABCC4 (GeneID 10257) [SID315453953] came out at: TNF reporter robust z-score 1.09; inactive.
For ABCC4 (GeneID 10257) [SID315453953], the values are TNF reporter robust z-score 1.83; inactive.
Depletion of MYPN (GeneID 84665) [SID315460449] resulted in: TNF reporter robust z-score -1.12; inactive.
MYPN (GeneID 84665) [SID315460449] scored TNF reporter robust z-score -0.67; inactive.
Depletion of MYPN (GeneID 84665) [SID315460449] gave: TNF reporter robust z-score -0.99; inactive.
For MYPN (GeneID 84665) [SID315460449], the values are TNF reporter robust z-score -0.77; inactive.
